Results on 80 molecules are retold here after publication PMC12040169 (PLOS Biology, 2025).

The list shows a part of the results.

The test system of the assay is T1, CTL2-GFP (C. trachomatis L2/434/Bu, GFP-expressing).
T1 construct: L2/434/Bu, GFP-expressing
On the set-up: species or system HeLa; Intracellular C. trachomatis growth in HeLa cells, bulk GFP fluorescence relative to DMSO. Particulars: bulk GFP, single well; 28.5 h, 10 µM; inhibitor.
With `CC(C)S(=O)(=O)n1c(=O)n(CC(=O)c2csc3ccccc23)c2ccccc21` [CBK106559], the “% of control remaining” value is 90.286%. As to `Fc1ccc(OCCCCCN2CCC3(CC2)OCCc2c3[nH]c3ccccc23)cc1` [CBK113516T], the “% of control remaining” value stood at 42.5907%. Regarding `CN(CC(=O)O)c1ccccc1C(=O)O` [CBK260996], the “% of control remaining” value was determined as 114.392%. As for `Cc1ccc(C(=O)N(C)Cc2cc(-c3ccncc3)no2)c(=O)n1C` [CBK307324], the figure is 120.237%; as for `Cc1nc(C)n(CCNC(=O)C(C)Cc2cccs2)n1` (centres unmarked) [CBK282067], 116.857%. For `O=C(Cn1c(-c2ccc(F)cc2)cc2cccnc21)N1CCOCC1` [CBK285383] the value was 99.4383%. As for `COc1ccc(NS(=O)(=O)c2ccc(Cl)cc2Cl)c(C(=O)NCc2ccccc2)c1` [CBK113943], the “% of control remaining” value was 118.77%.

In the case of `CCN(CC(=O)Nc1ccccc1OC)S(=O)(=O)c1ccccc1` [CBK269428], the “% of control remaining” value is recorded as 117.404%. With `CCOc1ccc(OC(=O)c2ccc3c(c2)OCO3)cc1` [CBK149205], the “% of control remaining” value turned out to be 120.044%. With `O=C1NCCCC12CCN(Cc1cnc(N3CCOCC3)nc1)CC2` [CBK285528], the “% of control remaining” value is on record as 113.231%. As for `Cc1cc(NC(=O)c2ccccc2)nc2c1c(=O)oc1ccccc12` [CBK291126], the figure is 107.771%; as for `O=C(NC1CCN(CC2(c3ccccc3)CC2)CC1)c1cc[nH]n1` [CBK285351], 133.34%. For `N#Cc1sc2nc(C34CC5CC(CC(C5)C3)C4)ccc2c1N` [CBK267455] the value was 141.744%; for `O=C1CC(Cc2ccccc2)C(=O)N1CCCn1ccnc1` (centres unmarked) [CBK265123G], 120.372%. Take `Cc1ccc(-c2nnc(CNC(=O)c3ccccc3-c3ccccc3)o2)s1` [CBK286298]: the “% of control remaining” value amounted to 108.705%. For `CCNCCOc1c(C)cc(C)cc1C` [CBK270137C] the value was 84.5363%. For `COc1ccc(Nc2nnc(-c3ccc(C(N)=O)cc3)c3ccccc23)cc1` [CBK264246] the value was 115.569%; for `Cn1c(=O)n(C)c2cc(S(=O)(=O)NCC3(O)CCCNCC3)ccc21` (centres unmarked) [CBK306777], 130.75%; for `Brc1ccc(NCc2ccccn2)cc1` [CBK026347], 140.988%. For `COCCC(=O)N1C[C@@H](c2cccc(F)c2)[C@@]2(CCCC(=O)N2)C1` [CBK283450] the value was 115.744%; for `COc1ccc(OCC(=O)NNC(=O)c2cnccn2)cc1` [CBK262619], 110.613%. As for `O=C(Nc1cccc([N+](=O)[O-])c1)c1cc(S(=O)(=O)N2CCCCC2)ccc1Cl` [CBK261367], the “% of control remaining” value is reported as 118.374%. For the molecule `COc1ccc(-c2csc(NC(=O)c3ccccc3-c3ccccc3C(=O)O)n2)cc1` [CBK296076], the “% of control remaining” value is 143.822%. For `C=CCNC(=O)Cn1c(-c2ccco2)cc2cccnc21` [CBK282719] the value was 139.127%; for `CCOC(=O)C1CSCCN1C(=O)c1ccc(-n2nc(C)cc2C)cc1` (centres unmarked) [CBK304517], 149.09%. For `CCO[C@H]1COC[C@@H]1NC(=O)c1cccc2c1NCCC2` [CBK307113] the value was 115.505%; for `Cc1ccccc1NS(=O)(=O)c1cc(CN2C[C@@H](C)NC[C@@H]2C)c2occc2c1` [CBK103579T], 117.869%; for `COCCNC(=O)c1ccc(-c2ccccc2)nc1N(C)C` [CBK106049], 96.2542%.

Regarding `CCc1cc(C(=O)NC(c2ccc(F)cc2)c2nccn2C)n(C)n1` (centres unmarked) [CBK281434], the “% of control remaining” value came to 76.2478%. Regarding `O=C(Cn1c(C(F)(F)F)nc2ccccc21)NCCN1CCOCC1` [CBK267339], the “% of control remaining” value amounted to 173.122%. Regarding `CC1CCCCC1NC(=O)Cn1ncc2cccn2c1=O` (centres unmarked) [CBK283673], the “% of control remaining” value was found to be 133.65%.

On to `COCCCNC(=O)c1cccs1` [CBK009164], for which the “% of control remaining” value is reported as 94.6516%. As for `CCN(CC)c1ccc(C(=O)Cn2c(=O)n(C(=O)CCCc3ccc(OC)cc3)c3ccccc32)cc1` [CBK106503], the figure is 195.508%. As for `CC1CCN(Cc2ccc(-c3nnn(CC(=O)NCc4ccc(C(F)(F)F)nc4)n3)cc2)CC1` [CBK149721T], the figure is 97.1952%. For `OCCN(Cc1cccnc1)Cc1cccn1-c1ccccc1Cl` [CBK282936] the value was 125.375%; for `Cn1cc(C(=O)NCC(c2ccc(F)cc2)N2CCCC2)ccc1=O` (centres unmarked) [CBK282843], 121.44%; for `O=C(NCCNc1ccc([N+](=O)[O-])cc1Cl)c1ccccc1Cl` [CBK263541], 99.6802%. With `Cc1ccc(-c2cc3ccccn3c2C(=O)CSc2nncn2C)cc1` [CBK269580], the “% of control remaining” value was found to be 143.862%. `O=C(O)C(c1c[nH]c2ccccc12)N1CCN(Cc2ccncc2)CC1` (centres unmarked) [CBK286624]: the “% of control remaining” value was found to be 133.57%. As for `CC(C)c1ccc(S(=O)(=O)N2CC3CC2CO3)cc1` (centres unmarked) [CBK050999], the figure is 113.515%; as for `CC(C)[C@@H](CO)Nc1cncc(-c2cccc3ccccc23)n1` [CBK065566], 104.778%. For `OCc1nc2cc3cn[nH]c3cc2[nH]1` [CBK016203] the value was 100%; for `CCOC(=O)c1cccc(-c2ccsc2)n1` [CBK149244], 94.4935%. As for `O=C(Nc1ccc2[nH]ccc2c1)c1cnc(-c2ccc(F)cc2)c(-c2ccncc2)c1` [CBK037451], the figure is 128.832%; as for `Cc1ccc(OCC(=O)NNC(=O)C2COc3ccccc3O2)cc1` (centres unmarked) [CBK263511], 132.839%; as for `O=C(O)CC1S/C(=N/N=C/c2ccc(-c3cccc([N+](=O)[O-])c3)o2)NC1=O` (centres unmarked) [CBK264517], 106.133%. Regarding `CCCc1cc(=O)[nH]c2nnc(SCC(=O)NC)n12` [CBK287685], the “% of control remaining” value came out at 116.387%. For `Cn1c(C(C)(C)C)cs/c1=N\NS(=O)(=O)c1ccccc1` [CBK006830B], the “% of control remaining” value is given as 84.9106%. As for `CC(C)Nc1nc(NC(C)C)nc(Oc2ccc(C=O)cc2)n1` [CBK265043], the “% of control remaining” value is on record as 94.1027%. For `O=C(NC(NC1CCS(=O)(=O)C1)C(Cl)(Cl)Cl)c1ccc(Br)cc1` (centres unmarked) [CBK261091] the value was 75.4737%; for `COC(=O)c1ccc(NC(=O)CSc2nnc(-c3ccc(C)cc3)n2N)cc1` [CBK266114], 100.676%; for `COc1ccc(OC)c(S(=O)(=O)N2CC[C@H]3CC(=O)N(CCN(C)C)CC[C@H]3C2)c1` [CBK288788], 106.339%. As to `O=C(Nc1ccc(S(=O)(=O)NCCN2CCOCC2)cc1)N1CCCC1` [CBK270015], the “% of control remaining” value came out at 108.797%. For `COc1ccccc1OCc1ccc(Cl)s1` [CBK002782] the value was 152.522%. For the molecule `CCCN(CCC#N)S(=O)(=O)c1ccc(C(C)C)cc1` [CBK043453], the “% of control remaining” value is reported as 117.743%. As for `COc1cc(CNCCO)cc(Br)c1OCc1cccnc1` [CBK269681C], the figure is 98.0157%. For `CN(C(=O)CN1CCN(c2cc(-c3cc(C(F)(F)F)cc(C(F)(F)F)c3)ncn2)CC1)c1ccccc1` [CBK091125] the value was 171.2%. With `CCOC(=O)CSc1nc2ccccc2c(=O)n1Cc1ccccc1` [CBK054124], the “% of control remaining” value is reported as 110.349%. As to `Cc1cc(C(F)(F)F)nn1CCCNC(=O)c1cc(-c2ccccc2)nc2ccccc12` [CBK267755], the “% of control remaining” value amounted to 122.839%. For `Cc1[nH]c(=O)[nH]c(=O)c1S(=O)(=O)N1CCOCC1` [CBK261060] the value was 92.7119%.

With `CCCC/C=C/c1nccnc1NCCCO` [CBK038006], the “% of control remaining” value is reported as 162.926%.

Take `Cc1cccc(-c2noc(CCC(=O)NCC3CCCO3)n2)c1` (centres unmarked) [CBK268241]: the “% of control remaining” value is listed as 83.8644%. As for `O=C(NCc1ccccc1)c1ccncc1` [CBK200189], the figure is 109.326%. For `COc1ccc(-c2cc([C@H]3CN4CC[C@H]3C[C@@H]4CNC(=O)c3ccco3)n(C)n2)cc1` [CBK289099] the value was 126.444%; for `Cc1ccc2c(c1C)NC(=O)CC2c1ccc(F)cc1` (centres unmarked) [CBK288221], 140.84%. For the molecule `CCC(C)(C)c1ccc(S(=O)(=O)NCCCN2CCCC2)cc1` [CBK044126], the “% of control remaining” value amounted to 103.26%. For `COc1cccc2cc(C(=O)C3=C(O)C(=O)N(CCN4CCOCC4)C3c3ccc(F)cc3)oc12` (centres unmarked) [CBK266414], the “% of control remaining” value was determined as 174.038%. Regarding `Cc1cc2nn(-c3ccccc3)nc2cc1NC(=O)c1ccc(-c2cccc([N+](=O)[O-])c2)o1` [CBK263859], the “% of control remaining” value stood at 100%. As for `O=C(CN1CCCC2(CCN(C(=O)Cc3c[nH]c4ccccc34)C2)C1)c1ccsc1` (centres unmarked) [CBK132053], the figure is 127.437%; as for `COc1ccc([C@@]23CC[C@@H](NC(=O)Nc4ccccc4C(F)(F)F)C[C@@H]2N(C)CC3)cc1OC` [CBK036466T], 111.855%. Turning to `CC1CN(Cc2ccccc2)CCN1c1cnccn1` (centres unmarked) [CBK013684], the “% of control remaining” value was 121.084%. Consider `Cc1ccc(C)c(NC(=O)CSc2nnc(CCc3ccccc3)n2C)c1` [CBK266365], for which the “% of control remaining” value is recorded as 105.128%. As for `COc1ccc(-c2cnc3[nH]c(=O)n(Cc4ccccc4)c3n2)cc1` [CBK064210], the figure is 179.314%; as for `CC(NC(=O)Cn1cnc2ccccc21)c1ccccn1` (centres unmarked) [CBK281884], 97.3752%.

For the molecule `CCCc1cc(C(=O)NC(c2ccccc2)c2cccnc2)[nH]n1` (centres unmarked) [CBK282462], the “% of control remaining” value is listed as 129.091%. As for `O=C1CCCN1c1ccc(CN2CCN(C3CCCC3)C(=O)C2)cc1` [CBK281908], the figure is 149.562%.

For `O=C(COC(=O)c1cc(S(=O)(=O)N2CCCCC2)c(Cl)cc1Cl)c1ccccc1` [CBK261668], the “% of control remaining” value turned out to be 96.5619%. For `CN(CC(=O)N1CCOCC1)S(=O)(=O)c1ccc2ccccc2c1` [CBK266946] the value was 149.574%. For `OCCN1CCN(c2ccc(/C=C/c3ccccc3)cn2)CC1` [CBK036849] the value was 184.066%; for `CCCc1ccc(N(C)C(=O)c2ccc(C(C)(C)C)cc2)cc1` [CBK161612], 79.7881%.
